In paper PMC10342119, “ABF1 Positively Regulates Rice Chilling Tolerance via Inducing Trehalose Biosynthesis” (International Journal of Molecular Sciences, 2023):
No constants are given. Whether binding was seen depends on the method and setting. For part of these data: In cells and extracts the contact can be indirect. Some binding calls cover weakened binding; strength is not graded here. For part of these data: Tags and fused reporters may be left off the sequences shown. One block for each binder: values may come before it.

Tests used:
[1] = target: T1, ABF1 fused to the GAL4-binding domain (ABF1-BD) (rice (Oryza sativa L.)) (UniProt Q0JHF1); assay: two-hybrid; Matchmaker Gold Yeast Two-Hybrid System, strain Y2H Gold; selection on medium lacking Leu, Trp, His and adenine with 0.04 mg/mL X-alpha-Gal and 100 ng/mL Aureobasidin A
T1 sequence: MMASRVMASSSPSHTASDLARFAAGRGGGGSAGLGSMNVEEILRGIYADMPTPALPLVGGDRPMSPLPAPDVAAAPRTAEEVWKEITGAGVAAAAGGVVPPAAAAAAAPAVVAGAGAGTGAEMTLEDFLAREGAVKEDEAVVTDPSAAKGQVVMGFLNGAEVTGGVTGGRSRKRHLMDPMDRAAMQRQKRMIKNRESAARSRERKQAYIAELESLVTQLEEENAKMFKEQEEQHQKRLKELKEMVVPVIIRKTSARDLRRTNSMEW

[2] = target: T2, YN-ABF1 (rice (Oryza sativa L.)) (UniProt Q0JHF1); assay: split reporter; BiFC with YN-ABF1 and YC-SAPK10 from pDOE in tobacco leaf epidermal cells; confocal microscopy 72 h after infiltration
T2 sequence: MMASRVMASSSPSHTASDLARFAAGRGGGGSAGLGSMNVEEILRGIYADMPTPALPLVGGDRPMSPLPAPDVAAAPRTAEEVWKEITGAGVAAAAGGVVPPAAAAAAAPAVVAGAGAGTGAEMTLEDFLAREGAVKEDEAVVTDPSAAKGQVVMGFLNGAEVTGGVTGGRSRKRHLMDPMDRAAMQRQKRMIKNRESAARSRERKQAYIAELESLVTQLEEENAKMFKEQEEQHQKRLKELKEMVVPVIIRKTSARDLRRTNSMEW

[3] = target: T3, SAPK10-FLAG (rice (Oryza sativa L.)) (UniProt Q75H77); assay: co-IP; SAPK10-FLAG co-expressed with GFP or ABF1-GFP in tobacco leaves; extract incubated with anti-FLAG M2 magnetic beads at 4 °C for 2 h; blots with anti-GFP and anti-FLAG
T3 sequence: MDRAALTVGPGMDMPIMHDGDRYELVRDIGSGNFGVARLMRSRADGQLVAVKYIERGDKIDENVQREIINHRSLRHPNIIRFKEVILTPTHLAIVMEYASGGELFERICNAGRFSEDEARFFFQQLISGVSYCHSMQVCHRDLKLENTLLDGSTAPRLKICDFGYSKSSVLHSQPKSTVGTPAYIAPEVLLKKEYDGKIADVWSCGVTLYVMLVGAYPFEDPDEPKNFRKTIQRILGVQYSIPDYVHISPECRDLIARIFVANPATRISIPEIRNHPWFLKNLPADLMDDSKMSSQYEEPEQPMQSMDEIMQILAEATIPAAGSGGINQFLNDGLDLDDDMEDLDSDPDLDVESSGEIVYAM

- binding [1]: binds
B1: SAPK10-AD (enzyme, UniProt Q75H77 1-362)
chain: MDRAALTVGPGMDMPIMHDGDRYELVRDIGSGNFGVARLMRSRADGQLVAVKYIERGDKIDENVQREIINHRSLRHPNIIRFKEVILTPTHLAIVMEYASGGELFERICNAGRFSEDEARFFFQQLISGVSYCHSMQVCHRDLKLENTLLDGSTAPRLKICDFGYSKSSVLHSQPKSTVGTPAYIAPEVLLKKEYDGKIADVWSCGVTLYVMLVGAYPFEDPDEPKNFRKTIQRILGVQYSIPDYVHISPECRDLIARIFVANPATRISIPEIRNHPWFLKNLPADLMDDSKMSSQYEEPEQPMQSMDEIMQILAEATIPAAGSGGINQFLNDGLDLDDDMEDLDSDPDLDVESSGEIVYAM

- binding [2]: binds
B2: YC-SAPK10 (enzyme, UniProt Q75H77 1-362)
chain: MDRAALTVGPGMDMPIMHDGDRYELVRDIGSGNFGVARLMRSRADGQLVAVKYIERGDKIDENVQREIINHRSLRHPNIIRFKEVILTPTHLAIVMEYASGGELFERICNAGRFSEDEARFFFQQLISGVSYCHSMQVCHRDLKLENTLLDGSTAPRLKICDFGYSKSSVLHSQPKSTVGTPAYIAPEVLLKKEYDGKIADVWSCGVTLYVMLVGAYPFEDPDEPKNFRKTIQRILGVQYSIPDYVHISPECRDLIARIFVANPATRISIPEIRNHPWFLKNLPADLMDDSKMSSQYEEPEQPMQSMDEIMQILAEATIPAAGSGGINQFLNDGLDLDDDMEDLDSDPDLDVESSGEIVYAM

- binding [3]: binds
B3: GST-ABF1 (natural protein, rice (Oryza sativa L.), UniProt Q0JHF1 1-266, looked up)
chain: MMASRVMASSSPSHTASDLARFAAGRGGGGSAGLGSMNVEEILRGIYADMPTPALPLVGGDRPMSPLPAPDVAAAPRTAEEVWKEITGAGVAAAAGGVVPPAAAAAAAPAVVAGAGAGTGAEMTLEDFLAREGAVKEDEAVVTDPSAAKGQVVMGFLNGAEVTGGVTGGRSRKRHLMDPMDRAAMQRQKRMIKNRESAARSRERKQAYIAELESLVTQLEEENAKMFKEQEEQHQKRLKELKEMVVPVIIRKTSARDLRRTNSMEW
notes: ABF1 (bZIP12), bZIP transcription factor of rice; the CDS was fused into pGEX-4T-1; also called bZIP12; source: E. coli Transetta (DE3), purified (GST-Sefinose Kit); not shown: GST, N-terminal, kept
